The supplement of paper PMC3334620
In all, about 33,000 sequences were measured (“E-score (-0.5 to 0.5)”: median about -0.0014, highest 2% from about 0.25 on). The list shows a part of the results.

What follows are sequences tested against T1, Cad1 (UniProt P24813) (assay: PBM E-score (8-mer binding enrichment) (E-score (-0.5 to 0.5)); higher = stronger / more preferred TF binding). Conditions: protein concentration: 100 nM; construct: GST-full length.
T1 sequence: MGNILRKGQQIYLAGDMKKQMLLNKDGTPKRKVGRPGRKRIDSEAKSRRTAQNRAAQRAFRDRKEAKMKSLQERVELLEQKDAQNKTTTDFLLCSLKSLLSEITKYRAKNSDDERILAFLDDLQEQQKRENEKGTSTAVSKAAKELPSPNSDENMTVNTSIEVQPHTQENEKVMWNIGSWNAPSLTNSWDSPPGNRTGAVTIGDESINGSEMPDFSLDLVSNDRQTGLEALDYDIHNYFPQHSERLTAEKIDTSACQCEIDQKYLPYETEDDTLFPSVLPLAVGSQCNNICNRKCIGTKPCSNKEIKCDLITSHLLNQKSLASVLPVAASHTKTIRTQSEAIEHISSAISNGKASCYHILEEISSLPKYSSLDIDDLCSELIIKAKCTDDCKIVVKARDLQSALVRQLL
Experimental: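 Universal 'all 10-mer' protein binding microarrays (Agilent AMADID 015681) probed with GST-tagged S. cerevisiae TFs (full-length or DBD) made by in vitro transcription/translation (PURExpress), about 100-200 nM. Bound TF was detected with fluorescent anti-GST. Each ungapped 8-mer (which stands for itself and its reverse complement) is scored by the PBM enrichment score (E-score), a modified Wilcoxon-Mann-Whitney statistic from -0.5 to +0.5, computed with the Universal PBM Analysis Suite. Scale: above 0.35 generally sequence-specific binding.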
For GGAATAAC, the “PBM E-score” value was 0.203.
In the case of ATGTGGAA, the “PBM E-score” value is reported as 0.12.
CCTCTTAG was tested, and the “PBM E-score” value was 0.191.
CTGGTTAA was tested, and the “PBM E-score” value was -0.0885.
With TACATGGA the “PBM E-score” value was -0.135.
For AAATGTTG, the “PBM E-score” value was -0.205.
AGAATGCT was tested, and the “PBM E-score” value was 0.0001.
GAAAAGTC was tested, and the “PBM E-score” value was 0.0311.
In the case of AAGAGAGG, the “PBM E-score” value is reported as -0.173.
For ATTATTGA, the “PBM E-score” value was -0.00523.
With ATGAAACG the “PBM E-score” value was 0.0529.
For GAGCCTAC, the “PBM E-score” value was -0.185.
With CCCCGTAA the “PBM E-score” value was -0.128.
CCAGCCAC was tested, and the “PBM E-score” value was -0.0707.
ACTTTAGG was tested, and the “PBM E-score” value was -0.214.
AAATCGAT was tested, and the “PBM E-score” value was 0.246.
GTCGGGCA was tested, and the “PBM E-score” value was -0.0909.
With ACCTAGAG the “PBM E-score” value was -0.181.
For AGTAGTTC, the “PBM E-score” value was 0.0997.
For CACAGGAC, the “PBM E-score” value was -0.0449.
With CAAGCGCC the “PBM E-score” value was -0.119.
For AGGGTTGC, the “PBM E-score” value was -0.0156.
For ACCGGAAC, the “PBM E-score” value was 0.147.
ACCCGTTG was tested, and the “PBM E-score” value was -0.222.
For AGACGTTG, the “PBM E-score” value was -0.0385.
With GACTCCGC the “PBM E-score” value was -0.135.
For CCTCTCAG, the “PBM E-score” value was -0.235.
In the case of GGCGCTAA, the “PBM E-score” value is reported as -0.0255.
CTTTGCAA was tested, and the “PBM E-score” value was 0.0374.
In the case of CATCCAAA, the “PBM E-score” value is reported as -0.0398.
TAGGACCA was tested, and the “PBM E-score” value was -0.154.
With CGTGCGAC the “PBM E-score” value was -0.17.
In the case of CTCAATGA, the “PBM E-score” value is reported as -0.0762.
CCCCGTAG was tested, and the “PBM E-score” value was -0.199.
GGTTCTCA was tested, and the “PBM E-score” value was 0.0117.
For CACTTCGG, the “PBM E-score” value was -0.0116.
AGTGGCAG was tested, and the “PBM E-score” value was -0.0234.
With ATTATATG the “PBM E-score” value was 0.211.
CCTCACGA was tested, and the “PBM E-score” value was -0.294.
With TGCGAAAA the “PBM E-score” value was 0.266.
In the case of TAACATTA, the “PBM E-score” value is reported as 0.14.
In the case of AGCAAAGC, the “PBM E-score” value is reported as -0.0684.
For ACCTACCC, the “PBM E-score” value was -0.0797.
With ATCTCACA the “PBM E-score” value was -0.0434.
With CCAATATC the “PBM E-score” value was 0.158.
With ATAATTCC the “PBM E-score” value was -0.00553.
With GTCCGGGA the “PBM E-score” value was 0.135.
With TCGTGCAA the “PBM E-score” value was 0.232.
In the case of CGCATGAC, the “PBM E-score” value is reported as 0.0849.
In the case of CCTCTCTC, the “PBM E-score” value is reported as -0.208.
In the case of AGTGTCTG, the “PBM E-score” value is reported as 0.15.
ACTGATGC was tested, and the “PBM E-score” value was -0.0988.
With CATAATCA the “PBM E-score” value was 0.175.
For CCGGCTTC, the “PBM E-score” value was -0.015.
In the case of GAGGGTGC, the “PBM E-score” value is reported as -0.226.
With AAGTTGAT the “PBM E-score” value was 0.0664.
For AAGCTTCG, the “PBM E-score” value was -0.0845.
In the case of ACTTATTC, the “PBM E-score” value is reported as 0.0846.
In the case of ACCCGGTC, the “PBM E-score” value is reported as -0.162.
In the case of GACTTAAC, the “PBM E-score” value is reported as -0.135.
With ACTCAAAT the “PBM E-score” value was 0.108.
In the case of ACAACAAC, the “PBM E-score” value is reported as 0.138.
For ACGCTGTG, the “PBM E-score” value was 0.159.
In the case of ATATGATA, the “PBM E-score” value is reported as 0.285.
In the case of AAATTCCA, the “PBM E-score” value is reported as 0.308.
For GCACGGCA, the “PBM E-score” value was 0.144.
In the case of TCAGAGCA, the “PBM E-score” value is reported as -0.14.
For GGGAGGTA, the “PBM E-score” value was -0.14.
With ATAATATA the “PBM E-score” value was 0.227.
With ATCACGTG the “PBM E-score” value was 0.159.
In the case of CGCTCCAG, the “PBM E-score” value is reported as -0.174.
For GAGTGCGC, the “PBM E-score” value was -0.0123.
With AATTAATA the “PBM E-score” value was 0.432.
CAACTTAC was tested, and the “PBM E-score” value was -0.0836.
With AGACACCC the “PBM E-score” value was -0.151.
For AATCAAGC, the “PBM E-score” value was -0.0596.
AGCCGCTA was tested, and the “PBM E-score” value was -0.0301.
With CATCAGGA the “PBM E-score” value was 0.139.
With AGGTGTCG the “PBM E-score” value was -0.00801.
In the case of CTGGCCCA, the “PBM E-score” value is reported as -0.201.
With ACAGCCGA the “PBM E-score” value was -0.225.
With AACGGAAT the “PBM E-score” value was 0.269.
For AGCCTTTG, the “PBM E-score” value was -0.253.
For CGAGCACA, the “PBM E-score” value was 0.109.
For CGCGCTAA, the “PBM E-score” value was 0.256.
GAATGTAA was tested, and the “PBM E-score” value was 0.152.
For AAACATTC, the “PBM E-score” value was -0.177.
In the case of GGCGGATA, the “PBM E-score” value is reported as 0.0172.
AGATTAGG was tested, and the “PBM E-score” value was -0.0256.
For CGTGCGTA, the “PBM E-score” value was -0.05.
In the case of GCCAACCA, the “PBM E-score” value is reported as -0.116.
With AGCCGGAA the “PBM E-score” value was 0.21.
ATTCCAAC was tested, and the “PBM E-score” value was 0.0684.
For GCCCGGCC, the “PBM E-score” value was -0.259.
